# Data from patent US20070179183A1 (priority 2003, published 2007).
# By UniProt entry, the sequences of proteins in these tests, tags left out. Residues count along the entry.
# UniProt P13612, 34-1032: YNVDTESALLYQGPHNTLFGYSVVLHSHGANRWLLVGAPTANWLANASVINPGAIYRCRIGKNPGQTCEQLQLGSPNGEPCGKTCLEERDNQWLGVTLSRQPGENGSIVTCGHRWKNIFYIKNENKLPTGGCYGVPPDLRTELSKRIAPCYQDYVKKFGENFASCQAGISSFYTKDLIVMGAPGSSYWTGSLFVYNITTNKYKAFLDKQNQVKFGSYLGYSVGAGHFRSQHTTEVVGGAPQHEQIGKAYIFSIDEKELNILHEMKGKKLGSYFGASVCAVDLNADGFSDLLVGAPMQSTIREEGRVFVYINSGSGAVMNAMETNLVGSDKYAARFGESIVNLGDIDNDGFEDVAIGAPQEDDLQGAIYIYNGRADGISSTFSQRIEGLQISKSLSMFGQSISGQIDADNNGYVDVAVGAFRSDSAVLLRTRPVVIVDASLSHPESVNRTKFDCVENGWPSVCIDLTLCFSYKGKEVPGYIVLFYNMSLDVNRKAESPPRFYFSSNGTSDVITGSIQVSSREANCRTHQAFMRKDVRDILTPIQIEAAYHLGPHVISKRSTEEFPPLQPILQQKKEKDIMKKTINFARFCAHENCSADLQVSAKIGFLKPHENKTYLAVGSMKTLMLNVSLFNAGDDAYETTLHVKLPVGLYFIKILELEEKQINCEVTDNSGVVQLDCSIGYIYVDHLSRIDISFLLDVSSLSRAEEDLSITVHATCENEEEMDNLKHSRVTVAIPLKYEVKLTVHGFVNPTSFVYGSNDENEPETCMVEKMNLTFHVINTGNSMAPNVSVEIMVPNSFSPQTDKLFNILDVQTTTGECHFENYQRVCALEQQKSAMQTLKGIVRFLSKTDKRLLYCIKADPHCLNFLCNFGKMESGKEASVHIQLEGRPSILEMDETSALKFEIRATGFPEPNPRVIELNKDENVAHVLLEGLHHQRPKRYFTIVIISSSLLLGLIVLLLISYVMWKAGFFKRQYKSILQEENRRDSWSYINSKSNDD
# Some of these results come from one statement about several compounds together. Some compounds share one range, which may span the group rather than tell each member.
# Molecular target: T1, α4β1 integrin (Homo sapiens, UniProt P05556+P13612)
# T1 construct: endogenous in cells; host or cells: U-937 cells
# Assay: U-937 Cell Adhesion to Human VCAM-1 (α4β1 Binding Assay)
# Assay type: cell-based
# Conditions: stated as a band; each bound is printed with its own unit (100 nM; 1 μM); read-out: IC50 values in the α4β1 assays
# Protocol: Recombinant human soluble VCAM-1. (R&D Systems Ltd., UK) at 2 μg/ml in PBS was immobilized overnight onto microtiter plates. Unbound VCAM-1 was washed away and VCAM-1 coated plates were blocked with bovine serum albumin (BSA) 2.5% in PBS for 2 h at room temperature. U-937 cells were labelled with 5-carboxyfluorescein diacetate (5-CFDA) in order to detect bound cells to the wells. Test compounds were added to the wells followed by U-937 cells and the adhesion assay was performed for 1 h at 37° C. Following incubation, the wells were emptied and washed. Inhibition of binding was measured by the quantity of fluorescence bound to the plate for each of the various concentrations of test compound, as well as for controls containing no test compound, with a Cytofluor 2300 fluorescence measurement system.
row,SMILES,IC50 [nM]
1,"CC(C)(C)NS(=O)(=O)N[C@@H](Cc1ccc(NC(=O)c2c(Cl)cncc2Cl)cc1)C(=O)O [Example 1, (2S)-2{[(tert-butylamino)sulfonyl]amino}-3-{4-[(3,5-dichloroisonicotinoyl)amino]phenyl}propionic acid]",100 to 1000
2,"CN(C)S(=O)(=O)N[C@@H](Cc1ccc(NC(=O)c2c(Cl)cncc2Cl)cc1)C(=O)O [Example 7, (2S)-3-{4-[(3,5-dichloroisonicotinoyl)amino]phenyl}-2-{[(dimethylamino)sulfonyl]amino}propionic acid]",100 to 1000
3,"CC(C)CN(CC(C)C)S(=O)(=O)N[C@@H](Cc1ccc(NC(=O)c2c(Cl)cncc2Cl)cc1)C(=O)O [Example 11, (2S)-3-{4-[(3,5-dichloroisonicotinoyl)amino]phenyl}-2-{[(diisobutylamino)sulfonyl]amino}propionic acid]",100 to 1000
4,"CCN(Cc1ccccc1)S(=O)(=O)N[C@@H](Cc1ccc(NC(=O)c2c(Cl)cncc2Cl)cc1)C(=O)O [Example 13, (2S)-2-{[(benzylethylamino)sulfonyl]amino}-3-{4-[(3,5-dichloroisonicotinoyl)amino]phenyl}propionic acid]",100 to 1000
5,"CCCCN(CCCC)S(=O)(=O)N[C@@H](Cc1ccc(NC(=O)c2c(Cl)cncc2Cl)cc1)C(=O)O [Example 15, (2S)-3-{4-[(3,5-dichloroisonicotinoyl)amino]phenyl}-2-{[(dibutylamino)sulfonyl]amino}propionic acid]",100 to 1000
6,"COc1ccc(CCN(CC(C)C)S(=O)(=O)N[C@@H](Cc2ccc(NC(=O)c3c(Cl)cncc3Cl)cc2)C(=O)O)cc1OC [Example 17, (2S)-3-{4-[(3,5-dichloroisonicotinoyl)amino]phenyl}-2-({[[2-(3,4-dimethoxyphenyl)ethyl]isobutylamino]sulfonyl}amino)propionic acid]",100 to 1000
7,"O=C(Nc1ccc(C[C@H](NS(=O)(=O)N(Cc2cccs2)Cc2cccs2)C(=O)O)cc1)c1c(Cl)cncc1Cl [Example 19, (2S)-2-({[bis(thien-2-ylmethyl)amino]sulfonyl}amino)-3-{4-[(3,5-dichloroisonicotinoyl)amino]phenyl}propionic acid]",100 to 1000
8,"CN(CCc1ccccn1)S(=O)(=O)N[C@@H](Cc1ccc(NC(=O)c2c(Cl)cncc2Cl)cc1)C(=O)O [Example 21, (2S)-3-{4-[(3,5-dichloroisonicotinoyl)amino]phenyl}-2-({[methyl(2-pyridin-2-ylethyl)amino]sulfonyl}amino)propionic acid]",100 to 1000
9,"CC(C)CCN(Cc1cccs1)S(=O)(=O)N[C@@H](Cc1ccc(NC(=O)c2c(Cl)cncc2Cl)cc1)C(=O)O [Example 25, (2S)-3-{4-[(3,5-dichloroisonicotinoyl)amino]phenyl}-2-({[(3-methylbutyl)(thien-2-ylmethyl)amino]sulfonyl}amino)propionic acid]",100 to 1000
10,"O=C(Nc1ccc(C[C@H](NS(=O)(=O)N2CCCCC2)C(=O)O)cc1)c1c(Cl)cncc1Cl [Example 27, (2S)-3-{4-[(3,5-dichloroisonicotinoyl)amino]phenyl}-2-[(piperidin-1-ylsulfonyl)amino]propionic acid]",100 to 1000
11,"O=C(Nc1ccc(C[C@H](NS(=O)(=O)N2CCCCCC2)C(=O)O)cc1)c1c(Cl)cncc1Cl [Example 29, (2S)-2-[(azepan-1-ylsulfonyl)amino]-3-{4-[(3,5-dichloroisonicotinoyl)amino]phenyl}propionic acid]",100 to 1000
12,O=C(Nc1ccc(C[C@H](NS(=O)(=O)N2CCOCC2)C(=O)O)cc1)c1c(Cl)cncc1Cl [Example 31],100 to 1000
13,"O=C(Nc1ccc(C[C@H](NS(=O)(=O)N2CCSCC2)C(=O)O)cc1)c1c(Cl)cncc1Cl [Example 33, (2S)-3-{4-[(3,5-dichloroisonicotinoyl)amino]phenyl}-2-[(thiomorpholin-4-ylsulfonyl)amino]propionic acid]",100 to 1000
14,"CC1CCCC(C)N1S(=O)(=O)N[C@@H](Cc1ccc(NC(=O)c2c(Cl)cccc2Cl)cc1)C(=O)O (stereo partly drawn) [Example 41, (2S)-3-{4-[(2,6-dichlorobenzoyl)amino]phenyl}-2-{[(2,6-dimethylpiperidin-1-yl)sulfonyl]amino}propionic acid]",100 to 1000
15,"CC(C)N(C(C)C)S(=O)(=O)N[C@@H](Cc1ccc(NC(=O)c2c(Cl)cncc2Cl)cc1)C(=O)O [Example 43, (2S)-3-{4-[(3,5-dichloroisonicotinoyl)amino]phenyl}-2-{[(diisopropylamino)sulfonyl]amino}propionic acid]",100 to 1000
16,"CC1CCCC(C)N1S(=O)(=O)N[C@@H](Cc1ccc(NC(=O)c2c(Cl)cncc2Cl)cc1)C(=O)O (stereo partly drawn) [Example 45, (2S)-3-{4-[(3,5-dichloroisonicotinoyl)amino]phenyl}-2-{[(2,6-dimethylpiperidin-1-yl)sulfonyl]amino}propionic acid]",100 to 1000
17,"CC(C)N(C(C)C)S(=O)(=O)N[C@@H](Cc1ccc(Nc2nccc3cnccc23)cc1)C(=O)O [Example 49, (2S)-2-{[(diisopropylamino)sulfonyl]amino}-3-[4-(2,6-naphthyridin-1-ylamino)phenyl]propionic acid]",100 to 1000
18,"CC(C)N(C(C)C)S(=O)(=O)N[C@@H](Cc1ccc(Oc2nccc3cnccc23)cc1)C(=O)O [Example 53, (2S)-2-{[(diisopropylamino)sulfonyl]amino}-3-[4-(2,6-naphthyridin-1-yloxy)phenyl]propionic acid]",100 to 1000
19,"CC(C)N(C(C)C)S(=O)(=O)N[C@@H](Cc1ccc(Nc2nccc3cnccc23)cc1)C(=O)O [Example 55, (2S)-2-{[(diisopropylamino)sulfonyl]amino}-3-[4-(2,6-naphthyridin-1-ylamino)phenyl]propionic acid]",100 to 1000
20,"CC1CCCC(C)N1S(=O)(=O)N[C@@H](Cc1ccc(Nc2nccc3cnccc23)cc1)C(=O)O (stereo partly drawn) [Example 57, (2S)-2-{[(2,6-dimethylpiperidin-1-yl)sulfonyl]amino}-3-[4-(2,6-naphthyridin-1-ylamino)phenyl]propionic acid]",100 to 1000
21,"CC1CCCC(C)N1S(=O)(=O)N[C@@H](Cc1ccc(Oc2nccc3cnccc23)cc1)C(=O)O (stereo partly drawn) [Example 59, (2S)-2-{[(2,6-dimethylpiperidin-1-yl)sulfonyl]amino}-3-[4-(2,6-naphthyridin-1-yloxy)phenyl]propionic acid]",100 to 1000
22,"CC(C)N(Cc1ccccc1)S(=O)(=O)N[C@@H](Cc1ccc(NC(=O)c2c(Cl)cccc2Cl)cc1)C(=O)O [Example 61, (2S)-2-({[benzyl(isopropyl)amino]sulfonyl}amino)-3-{4-[(2,6-dichlorobenzoyl)amino]phenyl}propionic acid]",100 to 1000
23,"CC(C)N(Cc1ccccc1)S(=O)(=O)N[C@@H](Cc1ccc(NC(=O)c2c(Cl)cncc2Cl)cc1)C(=O)O [Example 63, (2S)-2-({[benzyl(isopropyl)amino]sulfonyl}amino)-3-{4-[(3,5-dichloroisonicotinoyl)amino]phenyl}propionic acid]",100 to 1000
24,"CC(C)N(Cc1cccs1)S(=O)(=O)N[C@@H](Cc1ccc(NC(=O)c2c(Cl)cncc2Cl)cc1)C(=O)O [Example 65, (2S)-2-({[isopropyl(thien-2-ylmethyl)amino]sulfonyl}amino)-3-{4-[(3,5-dichloroisonicotinoyl)amino]phenyl}propionic acid]",100 to 1000
25,CC(C)CN(C(C)C)S(=O)(=O)N[C@@H](Cc1ccc(NC(=O)c2c(Cl)cncc2Cl)cc1)C(=O)O [Example 73],100 to 1000
